Results are given in words; binding and its absence hold for the method and conditions named. Binding calls can cover weak binding; strength is not graded here. Each block holds one binder with its values, some of them ahead of it.
Molecular target: NHP CD33
Assay: flow cytometry, murine antibody; ML-1 CD33 KO cells expressing non-human primate CD33, compared with ML-1 CD33 KO cells

binding: binds
B1: 5D12 antibody (murine CD33^V-set antibody) (antibody, V domains shown)
VH: QVQLQQSGAEVVKPGASVKISCRASGYAFSNYWMNWVKQRPGKGLEWIGQIYPGNFNTDYNGQFKGKATLTVDKSSNTAYMQLSSLTSEDSAVYFCARFFDFGAYFTLDYWGQGTSVTVSS
VL: DIKMTQSPSSIYASLGERVTINCKASQDIKSYLSWYQQKPWKSPKTLIYYATTLADGVPSRFSGSGSGQDYSLTISSLESDDTATYYCLHHGESPWTFGEGTKLEIK
notes: Murine hybridoma antibody

binding: binds
B2: 8F5 antibody (murine CD33^V-set antibody) (antibody, V domains shown)
VH: EVKLVESGGGLVQPGGSLKLSCAASGFTFSDFYMYWVRQTPEKRLEWVAFISNAGVTTYYPDTVEGRFTISRDNAKNTLYLQMSRLMSEDTAMYYCTKSDYDGAWFPYWGQGTLVTVS
VL: DIVMSQSPSSLPVSVGEKVTLSCKSSQSLLYSRNQYNFLAWYQQRPGQSPKLLIYWASTRESGVPDRFTGSGSGTDFTLTISSVKAEDLAVYYCQQYYSYPYTFGGGTKLEIK
notes: Murine hybridoma antibody

Reference: US20230190810A1 (FRED HUTCHINSON CANCER CENTER, published 2023)
